# The other results are listed elsewhere or left out.
# B1: LlpA1 (Pseudomonas fluorescens), Q4KHC3 (protein)
# chain: MGSSHHHHHHSSGLVPRGSHMAWIRYDFTDNGSSVLPARYYMAPNQYLQSPNKRFKLLFQADGNLALYDGAQLAWVADQNTPFTNVSKGNKKDPMMVFMNYGFVLDDPLRGRIWSTTPSDPTMGSREDASLRAFTQVQDDGNIVTVDTIPHWYAPNGRVFTPAVGAAMIIGGTTELVPGQFYSAGEHSLVFQGDGNLVVYGPNSSVIWATYTQNKGGVRCVMQEDGNLVIYAANNGVVWQSGTGGHPGATIRLQANGSFTIVTERPVWARFGYTPTIKPPRVFYPDHKWKTGSYTWNNVF
# Columns and labels:
# Assay in all cases: glycan array binding signal (z-score within array); higher = stronger binding
# Conditions in all cases: glycan notation: IUPAC condensed, linker removed
# Kdn(a2-3)Gal(b1-4)GlcNAc = target: Kdn(a2-3)Gal(b1-4)GlcNAc
# In short: (§1)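 Glycan array data were curated from 3228 arrays in the Consortium for Functional Glycomics database and kept only where the protein sequence was available. Glycan names were converted to IUPAC-condensed notation, and columns mapping to the same glycan were averaged. The binding signal is a within-array Z-score, averaged across arrays of the same protein sequence at different concentrations or buffers and across linkers. Negative Z-scores can be read as non-binding.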
# [1] = target: Kdn(a2-3)Gal(b1-4)[Fuc(a1-3)]GlcNAc
# In short: as §1
# Kdn(a2-6)Gal(b1-4)GlcNAc = target: Kdn(a2-6)Gal(b1-4)GlcNAc
# In short: as §1
# [2] = target: Man(a1-2)Man(a1-2)Man(a1-3)Man
# In short: as §1
# [3] = target: Man(a1-2)Man(a1-2)Man(a1-6)[Man(a1-3)]Man
# In short: as §1
# Man(a1-2)Man(a1-3)Man = target: Man(a1-2)Man(a1-3)Man
# In short: as §1
# [4] = target: Man(a1-2)Man(a1-3)[Man(a1-2)Man(a1-6)]Man
# In short: as §1
# [5] = target: Man(a1-2)Man(a1-3)[Man(a1-2)Man(a1-6)]Man(a1-6)[Man(a1-2)Man(a1-2)Man(a1-3)]Man
# In short: as §1
# [6] = target: Man(a1-2)Man(a1-3)[Man(a1-2)Man(a1-6)]Man(a1-6)[Man(a1-2)Man(a1-2)Man(a1-3)]Man(b1-4)GlcNAc(b1-4)GlcNAc
# In short: as §1
# [7] = target: Man(a1-2)Man(a1-3)[Man(a1-6)]Man(a1-6)[Man(a1-2)Man(a1-3)]Man(b1-4)GlcNAc(b1-4)GlcNAc
# In short: as §1
# [8] = target: Man(a1-2)Man(a1-6)[Man(a1-3)]Man(a1-6)[Man(a1-2)Man(a1-2)Man(a1-3)]Man
# In short: as §1
# [9] = target: Man(a1-2)Man(a1-6)[Man(a1-3)]Man(a1-6)[Man(a1-2)Man(a1-2)Man(a1-3)]Man(b1-4)GlcNAc(b1-4)GlcNAc
# In short: as §1
# Man(a1-3)[Man(a1-6)]Man = target: Man(a1-3)[Man(a1-6)]Man
# In short: as §1
# [10] = target: Man(a1-3)[Man(a1-6)]Man(a1-6)[Man(a1-2)Man(a1-3)]Man(b1-4)GlcNAc(b1-4)GlcNAc
# In short: as §1
# [11] = target: Man(a1-3)[Man(a1-6)]Man(a1-6)[Man(a1-3)]Man
# In short: as §1
# [12] = target: Man(a1-3)[Man(a1-6)]Man(a1-6)[Man(a1-3)]Man(b1-4)GlcNAc(b1-4)GlcNAc
# In short: as §1
# [13] = target: Man(a1-3)[Man(a1-6)]Man(b1-4)GlcNAc(b1-4)GlcNAc
# In short: as §1
# [14] = target: Man(a1-3)[Man(a1-6)]Man(b1-4)GlcNAc(b1-4)[Fuc(a1-6)]GlcNAc
# In short: as §1
# Man(a1-6)Man = target: Man(a1-6)Man
# In short: as §1
# Man(b1-4)GlcNAc = target: Man(b1-4)GlcNAc
# In short: as §1
# MurNAc(b1-4)GlcNAc = target: MurNAc(b1-4)GlcNAc
# In short: as §1
# Neu5Ac(a2-3)Gal = target: Neu5Ac(a2-3)Gal
# In short: as §1
# [15] = target: Neu5Ac(a2-3)Gal(b1-3)GalNAc
# In short: as §1
# [16] = target: Neu5Ac(a2-3)Gal(b1-3)GalNAc(b1-3)Gal(a1-4)Gal(b1-4)Glc
# In short: as §1
# [17] = target: Neu5Ac(a2-3)Gal(b1-3)GalNAc(b1-4)[Neu5Ac(a2-3)]Gal(b1-4)Glc
# In short: as §1
# [18] = target: Neu5Ac(a2-3)Gal(b1-3)GalNAc(b1-4)[Neu5Ac(a2-8)Neu5Ac(a2-3)]Gal(b1-4)Glc
# In short: as §1
# [19] = target: Neu5Ac(a2-3)Gal(b1-3)GalNAc6S
# In short: as §1
# [20] = target: Neu5Ac(a2-3)Gal(b1-3)GlcNAc
# In short: as §1
# [21] = target: Neu5Ac(a2-3)Gal(b1-3)GlcNAc(b1-2)Man
# In short: as §1
# [22] = target: Neu5Ac(a2-3)Gal(b1-3)GlcNAc(b1-2)Man(a1-3)[GlcNAc(b1-4)][Neu5Ac(a2-3)Gal(b1-3)GlcNAc(b1-2)Man(a1-6)]Man(b1-4)GlcNAc(b1-4)GlcNAc
# In short: as §1
# [23] = target: Neu5Ac(a2-3)Gal(b1-3)GlcNAc(b1-2)Man(a1-3)[Neu5Ac(a2-3)Gal(b1-3)GlcNAc(b1-2)Man(a1-6)]Man(b1-4)GlcNAc(b1-4)GlcNAc
# In short: as §1
# [24] = target: Neu5Ac(a2-3)Gal(b1-3)GlcNAc(b1-3)Gal(b1-3)GlcNAc
# In short: as §1
# [25] = target: Neu5Ac(a2-3)Gal(b1-3)GlcNAc(b1-3)Gal(b1-4)GlcNAc
# In short: as §1
# [26] = target: Neu5Ac(a2-3)Gal(b1-3)GlcNAc(b1-3)GalNAc
# In short: as §1
# [27] = target: Neu5Ac(a2-3)Gal(b1-3)GlcNAc(b1-4)Gal(b1-4)Glc
# In short: as §1
# [28] = target: Neu5Ac(a2-3)Gal(b1-3)GlcNAc(b1-6)GalNAc
# In short: as §1
# [29] = target: Neu5Ac(a2-3)Gal(b1-3)GlcNAc6S
# In short: as §1
# [30] = target: Neu5Ac(a2-3)Gal(b1-3)[Fuc(a1-4)]GlcNAc
# In short: as §1
# [31] = target: Neu5Ac(a2-3)Gal(b1-3)[Fuc(a1-4)]GlcNAc(b1-3)Gal(b1-3)[Fuc(a1-4)]GlcNAc
# In short: as §1
# [32] = target: Neu5Ac(a2-3)Gal(b1-3)[Fuc(a1-4)]GlcNAc(b1-3)Gal(b1-4)[Fuc(a1-3)]GlcNAc
# In short: as §1
# [33] = target: Neu5Ac(a2-3)Gal(b1-3)[GlcNAc(b1-6)]GalNAc
# In short: as §1
# [34] = target: Neu5Ac(a2-3)Gal(b1-3)[Neu5Ac(a2-3)Gal(b1-4)]GlcNAc
# In short: as §1
# [35] = target: Neu5Ac(a2-3)Gal(b1-3)[Neu5Ac(a2-6)]GalNAc
# In short: as §1
# [36] = target: Neu5Ac(a2-3)Gal(b1-3)[Neu5Ac(a2-6)]GlcNAc(b1-3)[Fuc(a1-3)[Gal(b1-4)]GlcNAc(b1-6)]Gal(b1-4)Glc
# In short: as §1
# [37] = target: Neu5Ac(a2-3)Gal(b1-3)]Neu5Ac(a2-3)Gal(b1-4)]GlcNAc
# In short: as §1
binder,measurement,setting,value
B1,glycan array binding signal (z-score),Kdn(a2-3)Gal(b1-4)GlcNAc,-0.55
same,glycan array binding signal (z-score),[1],-0.679
same,glycan array binding signal (z-score),Kdn(a2-6)Gal(b1-4)GlcNAc,0.056
same,glycan array binding signal (z-score),[2],0.075
same,glycan array binding signal (z-score),[3],-0.268
same,glycan array binding signal (z-score),Man(a1-2)Man(a1-3)Man,-0.262
same,glycan array binding signal (z-score),[4],-0.261
same,glycan array binding signal (z-score),[5],-0.481
same,glycan array binding signal (z-score),[6],0.448
same,glycan array binding signal (z-score),[7],-0.851
same,glycan array binding signal (z-score),[8],1.14
same,glycan array binding signal (z-score),[9],-0.551
same,glycan array binding signal (z-score),Man(a1-3)[Man(a1-6)]Man,0.455
same,glycan array binding signal (z-score),[10],0.633
same,glycan array binding signal (z-score),[11],0.991
same,glycan array binding signal (z-score),[12],-0.014
same,glycan array binding signal (z-score),[13],-0.597
same,glycan array binding signal (z-score),[14],-0.367
same,glycan array binding signal (z-score),Man(a1-6)Man,1.03
same,glycan array binding signal (z-score),Man(b1-4)GlcNAc,-0.216
same,glycan array binding signal (z-score),MurNAc(b1-4)GlcNAc,-0.089
same,glycan array binding signal (z-score),Neu5Ac(a2-3)Gal,0.408
same,glycan array binding signal (z-score),[15],-1
same,glycan array binding signal (z-score),[16],0.287
same,glycan array binding signal (z-score),[17],-0.289
same,glycan array binding signal (z-score),[18],-0.525
same,glycan array binding signal (z-score),[19],0.094
same,glycan array binding signal (z-score),[20],-0.178
same,glycan array binding signal (z-score),[21],0.204
same,glycan array binding signal (z-score),[22],0.275
same,glycan array binding signal (z-score),[23],-0.367
same,glycan array binding signal (z-score),[24],-0.574
same,glycan array binding signal (z-score),[25],-0.453
same,glycan array binding signal (z-score),[26],-0.275
same,glycan array binding signal (z-score),[27],-0.359
same,glycan array binding signal (z-score),[28],-0.204
same,glycan array binding signal (z-score),[29],0.123
same,glycan array binding signal (z-score),[30],0.019
same,glycan array binding signal (z-score),[31],-0.488
same,glycan array binding signal (z-score),[32],0.091
same,glycan array binding signal (z-score),[33],-0.063
same,glycan array binding signal (z-score),[34],-0.689
same,glycan array binding signal (z-score),[35],-0.135
same,glycan array binding signal (z-score),[36],-0.275
same,glycan array binding signal (z-score),[37],0.082

# 3 entries picked at random from the list so far, as already listed:
binder,measurement,setting,value
B1,glycan array binding signal (z-score),[33],-0.063
same,glycan array binding signal (z-score),[15],-1
same,glycan array binding signal (z-score),[34],-0.689

# From the supplement of paper PMC8728848
